From patent US8772348B2, “Materials and methods for pest control” (priority 2009, dated 2014)
Read-outs that look alike come from different tables or passages of the source. Some entries share one result that the patent states for a list of compounds. For at least one compound, name, drawing or mass did not settle the structure.

Assays:
Aedes aegypti [1] = settings: on the first two days
Method: Briefly, after mosquitoes are exposed to formulations for 2 hours at a concentration of LC99, each set is transferred into a separate glass jar, and held for another 24 hours. The mortality rate is measured with new mosquitoes on post-treatment days 2, 3, 5, 8 and 14 (Day 1 starts at 24 hours after the transfer), and is determined using the same procedures as are illustrated in Example 2.
Concentrations were generated from technical-based LC99 values obtained from a 2 h exposure period on military fabric. Fabric was treated on day 0 and was held until exposure on post-treatment day. Mosquitoes were exposed for 2 h, and mortality rate was assessed 24 h after initial exposure. Control contained formulation ingredients without semiochemicals.

Stomoxys calcitrans = settings: formulations on ply-wood panel boards, stable fly
Method: Briefly, each fly strain is divided into eight sets: three sets as the experiment, four sets as the positive control, and one set as the negative control. Flies are assayed on unpainted plywood panel boards that have been previously exposed to natural summer weather conditions for at least 10 days. […] The positive control set is treated with permethrin, geranyl acetone, rosalva or citronellol. The negative control set is treated with water. The formulation is applied at a uniform rate of 7.5 ml per 225 cm^2, sufficient to cover the entire panel without dripping. Subsequently, the treated panel boards are dried for about an hour.
In each set, 20 adult flies are placed onto the panel boards. Flies are secured with wooden embroidery hoops, covered with a coarse mesh screen cloth previously sprayed with the respective formulation. After 4 hours, flies are transferred into a clean jar. The mortality rate is measured 24 hours after the transfer, and is determined using the same procedures as are illustrated in Example 2.
(§1) Plywood panels (225 cm^2) were treated with chemicals at a rate of 1.67 mgcm^−2. Panels were treated on day 0 and held until exposure on post-treatment day. Mosquitoes were exposed to chemicals for 2 h, and mortality rate was assessed 24 h after initial exposure. Control contained formulation ingredients without semiochemicals.

Aedes aegypti [2] = system: Aedes aegypti
Method: Briefly, after mosquitoes are assayed on unpainted plywood panel boards with formulation at a concentration of 1.67 mg cm^−2 for 2 hours, they are transferred into a separate glass jar, and held for another 24 hours. The mortality rate is measured daily for a continuous 4 days (Day 1 starts at 24 hours after the transfer), as is determined using the same procedures as are illustrated in Example 2.
as §1, with “of 1.67 mg cm^−2. Panels were” for “of 1.67 mgcm^−2. Panels were”, “0 and was held until” for “0 and held until”

Compound: CC1(C)CCCC2=C1CC(C=O)CC2 (stereo not shown) [Cyclemone A, 2-naphthaldehyde, 1,2,3,4,5,6,7,8-octahydro-8,8-dimethyl]
- mortality rate (Aedes aegypti [1]): above 90%
- mortality rate (Stomoxys calcitrans): 99-100%
- mortality rate (Aedes aegypti [2]; Day 1): above 96%
- mortality rate (Aedes aegypti [2]; Day 2): above 59%
